Measurements: PMC4673504
No constants are given. Whether binding was seen depends on the method and setting. Binding seen in cells or lysates may run through a third protein. Here binding means that the protein was enriched with, or labelled near, the bait; the list need not be complete.

target: FLAG-tagged GAL4–AF4-2C fusion protein (human); experiment: affinity purification with mass spectrometry; fanChIP: chromatin fraction of 293T cells (cytoskeleton buffer extraction, MNase digestion, lysis buffer), anti-FLAG affinity purification, LC-MS/MS of gel pieces

Binder | binding
TAF1A (endogenous) (protein, UniProt Q15573 1-450) MSDFSEELKGPVTDDEEVETSVLSGAGMHFPWLQTYVETVAIGGKRRKDFAQTTSACLSFIQEALLKHQWQQAAEYMYSYFQTLEDSDSYKRQAAPEIIWKLGSEILFYHPKSNMESFNTFANRMKNIGVMNYLKISLQHALYLLHHGMLKDAKRNLSEAETWRHGENTSSREILINLIQAYKGLLQYYTWSEKKMELSKLDKDDYAYNAVAQDVFNHSWKTSANISALIKIPGVWDPFVKSYVEMLEFYGDRDGAQEVLTNYAYDEKFPSNPNAHIYLYNFLKRQKAPRSKLISVLKILYQIVPSHKLMLEFHTLLRKSEKEEHRKLGLEVLFGVLDFAGCTKNITAWKYLAKYLKNILMGNHLAWVQEEWNSRKNWWPGFHFSYFWAKSDWKEDTALACEKAFVAGLLLGKGCRYFRYILKQDHQILGKKIKRMKRSVKKYSIVNPRL | binds
TAF1B (endogenous) (protein, UniProt Q53T94 1-588) MDLEEAEEFKERCTQCAAVSWGLTDEGKYYCTSCHNVTERYQEVTNTDLIPNTQIKALNRGLKKKNNTEKGWDWYVCEGFQYILYQQAEALKNLGVGPELKNDVLHNFWKRYLQKSKQAYCKNPVYTTGRKPTVLEDNLSHSDWASEPELLSDVSCPPFLESGAESQSDIHTRKPFPVSKASQSETSVCSGSLDGVEYSQRKEKGIVKMTMPQTLAFCYLSLLWQREAITLSDLLRFVEEDHIPYINAFQHFPEQMKLYGRDRGIFGIESWPDYEDIYKKTVEVGTFLDLPRFPDITEDCYLHPNILCMKYLMEVNLPDEMHSLTCHVVKMTGMGEVDFLTFDPIAKMAKTVKYDVQAVAIIVVVLKLLFLLDDSFEWSLSNLAEKHNEKNKKDKPWFDFRKWYQIMKKAFDEKKQKWEEARAKYLWKSEKPLYYSFVDKPVAYKKREMVVNLQKQFSTLVESTATAGKKSPSSFQFNWTEEDTDRTCFHGHSLQGVLKEKGQSLLTKNSLYWLSTQKFCRCYCTHVTTYEESNYSLSYQFILNLFSFLLRIKTSLLHEEVSLVEKKLFEKKYSVKRKKSRSKKVRRH | binds

Results, then the binder that gave them:

binding | Binder
binds | TAF1D (endogenous) (protein, UniProt Q9H5J8 1-278) MDKSGIDSLDHVTSDAVELANRSDNSSDSSLFKTQCIPYSPKGEKRNPIRKFVRTPESVHASDSSSDSSFEPIPLTIKAIFERFKNRKKRYKKKKKRRYQPTGRPRGRPEGRRNPIYSLIDKKKQFRSRGSGFPFLESENEKNAPWRKILTFEQAVARGFFNYIEKLKYEHHLKESLKQMNVGEDLENEDFDSRRYKFLDDDGSISPIEESTAEDEDATHLEDNECDIKLAGDSFIVSSEFPVRLSVYLEEEDITEEAALSKKRATKAKNTGQRGLKM
binds | TAF1C (endogenous) (protein, UniProt Q15572 1-869) MDFPSSLRPALFLTGPLGLSDVPDLSFMCSWRDALTLPEAQPQNSENGALHVTKDLLWEPATPGPLPMLPPLIDPWDPGLTARDLLFRGGCRYRKRPRVVLDVTEQISRFLLDHGDVAFAPLGKLMLENFKLEGAGSRTKKKTVVSVKKLLQDLGGHQPWGCPWAYLSNRQRRFSILGGPILGTSVASHLAELLHEELVLRWEQLLLDEACTGGALAWVPGRTPQFGQLVYPAGGAQDRLHFQEVVLTPGDNPQFLGKPGRIQLQGPVRQVVTCTVQGESKALIYTFLPHWLTCYLTPGPFHPSSALLAVRSDYHCAVWKFGKQWQPTLLQAMQVEKGATGISLSPHLPGELAICSRSGAVCLWSPEDGLRQIYRDPETLVFRDSSSWRWADFTAHPRVLTVGDRTGVKMLDTQGPPGCGLLLFRLGAEASCQKGERVLLTQYLGHSSPKCLPPTLHLVCTQFSLYLVDERLPLVPMLKWNHGLPSPLLLARLLPPPRPSCVQPLLLGGQGGQLQLLHLAGEGASVPRLAGPPQSLPSRIDSLPAFPLLEPKIQWRLQERLKAPTIGLAAVVPPLPSAPTPGLVLFQLSAAGDVFYQQLRPQVDSSLRRDAGPPGDTQPDCHAPTASWTSQDTAGCSQWLKALLKVPLAPPVWTAPTFTHRQMLGSTELRREEEEGQRLGVLRKAMARGQLLLQRDLGSLPAAEPPPAPESGLEDKLSERLGEAWAGRGAAWWERQQGRTSEPGRQTRRPKRRTQLSSSFSLSGHVDPSEDTSSPHSPEWPPADALPLPPTTPPSQELTPDACAQGVPSEQRQMLRDYMAKLPPQRDTPGCATTPPHSQASSVRATRSQQHTPVLSSSQPLRKKPRMGF
